{"source": "paper doi:10.1101/842682", "binders": {"B1": {"name": "Flag-Cep63 (protein, UniProt Q3UPP8 1-700)", "chain": "MEALLEGIQNRGHSGGFLTSCEAELQELMKQIDIMVAHKKSEWEGQTHALETCLDIRDRELKALRSQLDMKHKEVGILHQQIEEHEKTKQEMAMEYKEELLKLQEELSRLKRSYEKLQKKQLREFRGNTKSFREDRSEIERLTGKIEEFRQKSLDWEKQRLIYQQQVSSLEAQRKALAEQSEIIQAQLANRKQKLESVELSSQSEIQHLNSKLERAKDTICANELEIERLNIRVNDLMGTNMTILQDHRQKEEKLRESEKLLEALQEEQKELKASLQSQETFILEAKMQEKLQTTLKAVGTQQSVERPLEDCQKERKYSSPGQGVLDNVLSQLDFSHSSEELLQAEVTRLEGSLESVSATCKQLSQELMEKYEELKRMEGHNNEYRTEIKKLKEQILQADQTYSSALEGMKMEISQLTRELHQRDITIASAKCSSSDMEKQLKAEMQKAEEKAVEHKEILSQLESLKLENHRLSETVMKLELGLHEAKEISLADLQENYIEALNKLVSENQQLQKDLMSTKSELEHATNMCKKKDGEIFNPAHSRAAGFKNAELKPIHGQHRHDGIKTEQYKTGHHSPRGQTLDSIDPVARGPSPLSSHISPGSSTVSLPSNFLFEAHSLPSVLDINDVNFSDSLSDCMNDQEEFVSSGSLPTSPLGSIATRFLEEEELRSHHILERLDAHIEELKRESEKTVRQFTALV"}, "B2": {"name": "His-Cep63 (protein, UniProt Q3UPP8 1-700)", "chain": "B1 chain"}}, "key": {"GFP-Cep57 (mouse)": {"biological_target": "T1, GFP-Cep57 (mouse) (UniProt Q8CEE0)", "T1 sequence": "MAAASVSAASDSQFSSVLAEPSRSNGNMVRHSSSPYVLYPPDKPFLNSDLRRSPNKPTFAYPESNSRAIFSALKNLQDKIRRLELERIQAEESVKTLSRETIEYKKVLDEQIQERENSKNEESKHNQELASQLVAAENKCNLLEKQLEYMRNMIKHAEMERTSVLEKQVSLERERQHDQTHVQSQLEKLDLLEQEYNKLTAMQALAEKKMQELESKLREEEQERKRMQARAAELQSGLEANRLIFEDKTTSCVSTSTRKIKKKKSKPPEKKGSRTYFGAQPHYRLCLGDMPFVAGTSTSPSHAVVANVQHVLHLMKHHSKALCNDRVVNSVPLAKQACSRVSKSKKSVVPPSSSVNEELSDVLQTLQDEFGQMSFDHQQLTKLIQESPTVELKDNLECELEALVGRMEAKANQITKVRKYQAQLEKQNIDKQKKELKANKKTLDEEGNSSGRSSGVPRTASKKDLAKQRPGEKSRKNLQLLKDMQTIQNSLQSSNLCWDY", "experiment": "co-IP"}, "GFP-Cep57l1 (mouse)": {"biological_target": "T2, GFP-Cep57l1 (mouse) (UniProt Q8VDS7)", "T2 sequence": "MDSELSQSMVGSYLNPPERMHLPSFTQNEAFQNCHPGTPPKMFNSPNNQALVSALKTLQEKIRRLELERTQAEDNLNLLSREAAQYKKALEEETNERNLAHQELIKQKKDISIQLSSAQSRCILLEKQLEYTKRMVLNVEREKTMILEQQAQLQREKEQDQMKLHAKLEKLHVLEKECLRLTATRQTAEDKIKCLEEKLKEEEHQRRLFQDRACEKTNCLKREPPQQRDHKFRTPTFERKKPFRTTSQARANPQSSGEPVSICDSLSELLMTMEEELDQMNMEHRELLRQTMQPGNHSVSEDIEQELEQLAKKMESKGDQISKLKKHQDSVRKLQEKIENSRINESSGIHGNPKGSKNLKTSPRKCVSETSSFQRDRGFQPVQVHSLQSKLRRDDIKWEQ", "experiment": "co-IP"}, "GST-Cep57 (mouse)": {"biological_target": "T3, GST-Cep57 (mouse) (UniProt Q8CEE0)", "T3 sequence": "T1 sequence", "experiment": "pull-down"}}, "note": "No constants are given. Whether binding was seen depends on the method and setting. In cells and extracts the contact can be indirect. Some results given as binding are weak or reduced against the parent protein; the word gives no strength. Sequences can lack the tags named with a protein.", "data": [{"binder": "B1", "values": [{"measurement": "binding", "setting": "GFP-Cep57 (mouse)", "result": "binds"}, {"measurement": "binding", "setting": "GFP-Cep57l1 (mouse)", "result": "binds"}]}, {"binder": "B2", "values": [{"measurement": "binding", "setting": "GST-Cep57 (mouse)", "result": "binds"}]}]}
